In patent US10766940B2 (The Governors of the University of Alberta, priority 2016, dated 2020):
No end group written: not given here.

Test: general procedure: Fmoc solid-phase peptide synthesis; Rink amide resin (0.4 mmol/g); Rink amide MBHA resin; HCTU/NMM
Conditions: whole synthesis, scale of the general procedure 0.1 mmol; for final HPLC purity: Vydac analytical C18 RP-HPLC
[1] = one disulfide bridge, sequence written open

Substance	final HPLC purity [1] [%]	isolated yield [1] [%]	final HPLC purity [%]	isolated yield [%]
CLGRLSQELHRLQTYPRTYPRTNTGSNTYC-NH2 (cysteine pairing not given here)	97.5	40	–	–
HAIYPRH-(NH2)	–	–	98	70
LGRLSQELHRLQTYPRTYPRTNTGSNTY-NH2	–	–	98.6	55
